According to the supplement of paper PMC10849652:
The list shows a part of the results.

Chains of the proteins cited; added tags and fusions are not shown. Lines headed by an entry give the natural chain unless they say otherwise; changes in a name come on top.
UniProt P0C0S5, whole entry, looked up: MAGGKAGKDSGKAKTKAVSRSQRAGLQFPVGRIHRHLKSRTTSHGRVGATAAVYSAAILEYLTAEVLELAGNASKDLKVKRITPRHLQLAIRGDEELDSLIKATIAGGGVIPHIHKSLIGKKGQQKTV
UniProt P52657, whole entry, looked up: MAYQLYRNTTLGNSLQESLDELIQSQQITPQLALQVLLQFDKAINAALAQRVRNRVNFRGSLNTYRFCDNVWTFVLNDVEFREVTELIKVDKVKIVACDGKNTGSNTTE
UniProt P08236: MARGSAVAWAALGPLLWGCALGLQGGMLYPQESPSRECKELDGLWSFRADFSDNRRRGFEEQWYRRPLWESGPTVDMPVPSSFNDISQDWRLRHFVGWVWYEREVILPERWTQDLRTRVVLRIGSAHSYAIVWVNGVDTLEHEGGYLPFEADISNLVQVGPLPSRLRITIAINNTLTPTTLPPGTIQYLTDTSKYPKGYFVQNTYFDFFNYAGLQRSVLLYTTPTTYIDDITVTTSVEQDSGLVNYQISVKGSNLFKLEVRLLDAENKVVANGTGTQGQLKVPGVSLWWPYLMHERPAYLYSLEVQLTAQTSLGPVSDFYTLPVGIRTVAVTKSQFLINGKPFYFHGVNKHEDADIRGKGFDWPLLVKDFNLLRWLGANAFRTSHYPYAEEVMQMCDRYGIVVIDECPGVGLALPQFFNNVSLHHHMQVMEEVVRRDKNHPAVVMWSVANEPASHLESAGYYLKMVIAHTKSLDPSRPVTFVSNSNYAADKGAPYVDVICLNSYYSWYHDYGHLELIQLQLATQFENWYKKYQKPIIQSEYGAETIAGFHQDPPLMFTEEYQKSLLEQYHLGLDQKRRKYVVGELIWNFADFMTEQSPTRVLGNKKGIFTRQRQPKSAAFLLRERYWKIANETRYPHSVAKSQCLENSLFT
UniProt P46976: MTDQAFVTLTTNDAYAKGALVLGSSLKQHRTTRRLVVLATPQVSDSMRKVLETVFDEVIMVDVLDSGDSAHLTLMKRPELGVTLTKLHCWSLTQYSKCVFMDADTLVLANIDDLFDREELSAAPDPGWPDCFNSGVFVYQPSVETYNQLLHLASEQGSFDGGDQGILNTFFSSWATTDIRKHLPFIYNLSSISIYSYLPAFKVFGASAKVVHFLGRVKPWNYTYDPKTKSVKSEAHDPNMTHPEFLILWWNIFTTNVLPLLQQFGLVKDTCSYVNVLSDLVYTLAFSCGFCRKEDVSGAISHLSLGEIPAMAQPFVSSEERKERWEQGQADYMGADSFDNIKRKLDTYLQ
UniProt Q9H583: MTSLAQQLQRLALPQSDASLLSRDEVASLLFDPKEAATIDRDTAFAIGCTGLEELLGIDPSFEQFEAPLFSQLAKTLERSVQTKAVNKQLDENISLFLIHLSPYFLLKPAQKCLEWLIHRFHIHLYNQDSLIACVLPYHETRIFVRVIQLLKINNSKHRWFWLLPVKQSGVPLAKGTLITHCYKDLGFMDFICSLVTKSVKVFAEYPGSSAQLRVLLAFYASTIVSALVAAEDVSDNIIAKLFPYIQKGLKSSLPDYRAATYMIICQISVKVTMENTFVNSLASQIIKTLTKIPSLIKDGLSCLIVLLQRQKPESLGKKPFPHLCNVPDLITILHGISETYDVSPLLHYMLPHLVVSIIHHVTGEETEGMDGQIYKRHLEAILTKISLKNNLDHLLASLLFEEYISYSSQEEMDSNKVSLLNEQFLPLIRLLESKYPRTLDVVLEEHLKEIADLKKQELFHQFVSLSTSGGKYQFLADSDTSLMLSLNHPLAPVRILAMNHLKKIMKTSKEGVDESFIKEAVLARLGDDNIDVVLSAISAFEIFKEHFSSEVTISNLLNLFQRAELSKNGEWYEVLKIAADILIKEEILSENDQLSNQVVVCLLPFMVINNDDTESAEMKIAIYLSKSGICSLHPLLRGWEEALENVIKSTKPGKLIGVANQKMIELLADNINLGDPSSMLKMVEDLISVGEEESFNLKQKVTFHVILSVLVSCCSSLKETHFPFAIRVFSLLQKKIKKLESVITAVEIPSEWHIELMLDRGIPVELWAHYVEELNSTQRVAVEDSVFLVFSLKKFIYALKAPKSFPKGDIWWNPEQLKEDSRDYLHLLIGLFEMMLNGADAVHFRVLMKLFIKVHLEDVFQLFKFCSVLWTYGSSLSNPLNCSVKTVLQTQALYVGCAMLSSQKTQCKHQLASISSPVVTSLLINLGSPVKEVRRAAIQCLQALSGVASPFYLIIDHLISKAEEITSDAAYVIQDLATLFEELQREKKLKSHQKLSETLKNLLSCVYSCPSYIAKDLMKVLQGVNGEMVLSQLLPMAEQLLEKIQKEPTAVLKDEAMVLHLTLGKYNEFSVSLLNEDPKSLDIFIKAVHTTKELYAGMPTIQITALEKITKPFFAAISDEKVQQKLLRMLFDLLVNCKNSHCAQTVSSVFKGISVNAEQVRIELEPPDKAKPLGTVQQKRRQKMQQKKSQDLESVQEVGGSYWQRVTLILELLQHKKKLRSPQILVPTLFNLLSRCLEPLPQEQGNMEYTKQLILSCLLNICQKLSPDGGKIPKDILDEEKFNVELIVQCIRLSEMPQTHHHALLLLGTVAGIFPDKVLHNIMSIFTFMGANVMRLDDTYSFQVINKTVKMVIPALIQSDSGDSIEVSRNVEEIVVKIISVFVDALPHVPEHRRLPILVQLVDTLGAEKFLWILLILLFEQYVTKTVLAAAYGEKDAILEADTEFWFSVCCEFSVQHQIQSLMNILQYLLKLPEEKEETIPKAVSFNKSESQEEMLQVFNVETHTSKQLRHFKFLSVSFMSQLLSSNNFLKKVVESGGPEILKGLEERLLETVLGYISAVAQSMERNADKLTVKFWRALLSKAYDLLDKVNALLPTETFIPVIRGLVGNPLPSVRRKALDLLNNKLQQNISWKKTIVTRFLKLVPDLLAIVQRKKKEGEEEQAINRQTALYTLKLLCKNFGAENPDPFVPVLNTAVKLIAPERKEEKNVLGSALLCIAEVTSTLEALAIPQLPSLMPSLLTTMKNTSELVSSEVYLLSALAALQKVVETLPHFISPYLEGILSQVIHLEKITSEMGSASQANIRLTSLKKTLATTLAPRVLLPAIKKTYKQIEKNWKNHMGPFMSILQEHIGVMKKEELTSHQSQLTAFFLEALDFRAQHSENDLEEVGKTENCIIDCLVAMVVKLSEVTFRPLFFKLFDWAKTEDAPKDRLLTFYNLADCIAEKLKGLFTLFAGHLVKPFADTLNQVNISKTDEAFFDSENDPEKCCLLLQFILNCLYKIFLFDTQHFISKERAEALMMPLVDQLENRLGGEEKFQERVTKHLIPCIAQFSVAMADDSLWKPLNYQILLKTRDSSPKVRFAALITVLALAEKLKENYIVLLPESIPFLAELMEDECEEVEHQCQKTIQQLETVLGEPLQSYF
UniProt Q13889: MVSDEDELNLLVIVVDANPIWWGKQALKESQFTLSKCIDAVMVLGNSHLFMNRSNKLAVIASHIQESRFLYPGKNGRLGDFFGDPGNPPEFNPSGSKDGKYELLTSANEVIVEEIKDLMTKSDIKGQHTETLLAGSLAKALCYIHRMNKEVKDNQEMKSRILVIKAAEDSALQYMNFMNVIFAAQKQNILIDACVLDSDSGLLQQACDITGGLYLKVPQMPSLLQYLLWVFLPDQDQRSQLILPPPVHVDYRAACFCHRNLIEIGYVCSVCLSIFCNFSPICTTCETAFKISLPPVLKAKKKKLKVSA
UniProt P42694: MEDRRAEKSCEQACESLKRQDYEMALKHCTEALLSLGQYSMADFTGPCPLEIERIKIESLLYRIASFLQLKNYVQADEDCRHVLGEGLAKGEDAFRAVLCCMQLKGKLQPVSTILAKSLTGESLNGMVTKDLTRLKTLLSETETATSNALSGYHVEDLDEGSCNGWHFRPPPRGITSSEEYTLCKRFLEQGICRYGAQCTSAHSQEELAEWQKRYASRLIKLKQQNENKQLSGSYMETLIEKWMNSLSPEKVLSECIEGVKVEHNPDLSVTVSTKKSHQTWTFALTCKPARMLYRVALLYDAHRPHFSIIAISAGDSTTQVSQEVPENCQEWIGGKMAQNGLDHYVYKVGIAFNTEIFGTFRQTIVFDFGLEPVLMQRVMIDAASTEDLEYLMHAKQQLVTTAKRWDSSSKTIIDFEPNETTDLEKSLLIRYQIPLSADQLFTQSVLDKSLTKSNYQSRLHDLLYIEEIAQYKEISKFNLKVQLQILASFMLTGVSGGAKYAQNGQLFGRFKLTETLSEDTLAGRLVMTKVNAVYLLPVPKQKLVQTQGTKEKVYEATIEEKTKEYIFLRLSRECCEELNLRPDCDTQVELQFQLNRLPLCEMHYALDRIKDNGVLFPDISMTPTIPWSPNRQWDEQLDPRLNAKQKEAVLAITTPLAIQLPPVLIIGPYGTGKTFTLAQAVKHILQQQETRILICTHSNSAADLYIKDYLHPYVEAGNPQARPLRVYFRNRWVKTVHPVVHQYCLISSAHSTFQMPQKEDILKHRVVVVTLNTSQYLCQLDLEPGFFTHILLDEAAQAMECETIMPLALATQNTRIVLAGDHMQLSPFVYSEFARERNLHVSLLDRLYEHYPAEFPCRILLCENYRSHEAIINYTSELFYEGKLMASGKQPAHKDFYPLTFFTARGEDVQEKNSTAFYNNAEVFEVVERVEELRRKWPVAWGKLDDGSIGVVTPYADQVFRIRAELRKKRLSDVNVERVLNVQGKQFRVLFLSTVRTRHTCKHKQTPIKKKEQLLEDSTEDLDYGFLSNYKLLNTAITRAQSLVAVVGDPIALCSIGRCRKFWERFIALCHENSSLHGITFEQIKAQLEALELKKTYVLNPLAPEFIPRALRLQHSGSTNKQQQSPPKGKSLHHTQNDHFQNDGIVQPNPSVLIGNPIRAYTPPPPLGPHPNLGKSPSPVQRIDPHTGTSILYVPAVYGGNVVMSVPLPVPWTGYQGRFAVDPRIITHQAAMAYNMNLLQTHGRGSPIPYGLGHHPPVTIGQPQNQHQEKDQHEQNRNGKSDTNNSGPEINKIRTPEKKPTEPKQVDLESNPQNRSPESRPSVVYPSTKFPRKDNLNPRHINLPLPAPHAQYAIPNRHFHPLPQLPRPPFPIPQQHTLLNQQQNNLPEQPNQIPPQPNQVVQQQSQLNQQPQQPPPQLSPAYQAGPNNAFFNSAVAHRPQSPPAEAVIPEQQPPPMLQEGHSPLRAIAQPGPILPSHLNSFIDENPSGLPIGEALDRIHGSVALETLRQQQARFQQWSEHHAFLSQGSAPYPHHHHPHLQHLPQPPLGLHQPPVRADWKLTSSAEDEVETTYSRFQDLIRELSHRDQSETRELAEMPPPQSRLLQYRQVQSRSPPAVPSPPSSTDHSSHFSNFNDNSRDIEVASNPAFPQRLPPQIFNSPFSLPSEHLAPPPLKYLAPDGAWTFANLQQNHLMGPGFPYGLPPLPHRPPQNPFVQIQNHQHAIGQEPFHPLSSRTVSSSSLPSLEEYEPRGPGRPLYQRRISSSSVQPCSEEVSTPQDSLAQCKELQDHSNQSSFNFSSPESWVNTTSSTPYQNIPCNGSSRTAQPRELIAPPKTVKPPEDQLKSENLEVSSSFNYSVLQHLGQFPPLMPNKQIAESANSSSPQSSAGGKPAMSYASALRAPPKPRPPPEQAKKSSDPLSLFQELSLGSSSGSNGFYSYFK
UniProt Q7Z4H3: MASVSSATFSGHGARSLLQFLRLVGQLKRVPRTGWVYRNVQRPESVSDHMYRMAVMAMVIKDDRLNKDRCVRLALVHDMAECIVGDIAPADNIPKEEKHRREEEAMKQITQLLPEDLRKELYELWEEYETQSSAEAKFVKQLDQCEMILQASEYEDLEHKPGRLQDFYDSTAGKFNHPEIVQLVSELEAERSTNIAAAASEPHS
UniProt Q8NEC7: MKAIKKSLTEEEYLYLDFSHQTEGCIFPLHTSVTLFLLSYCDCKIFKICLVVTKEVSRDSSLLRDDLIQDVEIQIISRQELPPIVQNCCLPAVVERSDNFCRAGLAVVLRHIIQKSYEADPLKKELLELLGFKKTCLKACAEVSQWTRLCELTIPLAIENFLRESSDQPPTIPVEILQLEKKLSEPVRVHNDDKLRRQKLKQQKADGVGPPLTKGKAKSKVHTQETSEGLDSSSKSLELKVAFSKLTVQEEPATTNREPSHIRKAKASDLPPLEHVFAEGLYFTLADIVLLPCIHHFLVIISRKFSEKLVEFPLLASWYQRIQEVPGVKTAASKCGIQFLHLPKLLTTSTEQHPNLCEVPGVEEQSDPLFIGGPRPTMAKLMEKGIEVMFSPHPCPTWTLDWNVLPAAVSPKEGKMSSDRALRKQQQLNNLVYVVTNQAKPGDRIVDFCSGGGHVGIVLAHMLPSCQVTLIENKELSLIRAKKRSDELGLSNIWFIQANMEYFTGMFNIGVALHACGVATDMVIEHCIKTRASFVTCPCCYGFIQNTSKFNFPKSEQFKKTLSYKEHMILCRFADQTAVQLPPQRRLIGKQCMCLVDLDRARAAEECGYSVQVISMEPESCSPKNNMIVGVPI

Tests used:
Assay in all cases: log2 fold change, soluble protein after heating vs DMSO (PISA); higher = thermal stabilisation; K562 cells, 10 uM, 30 min; active = over 0.2 and 3.5 SD of the protein, either way, in both replicates (recomputed)
[1] = compound: CS(=O)(=O)c1ccc(-c2cnc(N)c(C(=O)Nc3ccccc3)n2)cc1
In short: (§1)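 K562 cells at 2×10^6 cells/mL were treated with 10 μM compound for 30 min. Aliquots were heated for 3 min across 48°C-58°C, pooled, and extracted in PBS with 0.5% NP-40 at 4°C; soluble protein was the supernatant after 21,000xg for 90 min. Soluble protein was quantified by TMTpro 16plex LC-MS/MS with channel sums equalised, and reported as log2 fold change in thermal stability against DMSO controls, with values from duplicates.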

crizotinib = compound: C[C@@H](Oc1cc(-c2cnn(C3CCNCC3)c2)cnc1N)c1c(Cl)ccc(F)c1Cl [crizotinib]
In short: as §1

[2] = compound: C[C@@H]1COCCN1C2=NC(=NC(=C2)C3(CC3)S(=O)(=O)C)C4=C5C=CNC5=CC=C4
In short: as §1

[3] = compound: C[C@H](C1=CC=C(C=C1)C(=O)NC2=C3C=CNC3=NC=C2)N
In short: as §1

gandotinib = compound: Cc1cc(Nc2cc(CN3CCOCC3)c3nc(C)c(Cc4ccc(Cl)cc4F)n3n2)n[nH]1 [gandotinib]
In short: as §1

[4] = compound: Cc1cc(SCc2sc(-c3ccc(C(F)(F)F)cc3)nc2C)ccc1OCC(=O)O
In short: as §1

doramapimod = compound: Cc1ccc(-n2nc(C(C)(C)C)cc2NC(=O)Nc2ccc(OCCN3CCOCC3)c3ccccc23)cc1 [doramapimod]
In short: as §1

ispinesib = compound: Cc1ccc(C(=O)N(CCCN)[C@@H](c2nc3cc(Cl)ccc3c(=O)n2Cc2ccccc2)C(C)C)cc1 [ispinesib]
In short: as §1

bafetinib = compound: Cc1ccc(NC(=O)c2ccc(CN3CC[C@H](N(C)C)C3)c(C(F)(F)F)c2)cc1Nc1nccc(-c2cncnc2)n1 [bafetinib]
In short: as §1

[5] = compound: Cc1cccc(CC(=O)N2CCc3c2ccc(-c2cn(C)c4ncnc(N)c24)c3F)n1
In short: as §1

nilotinib = compound: Cc1cn(-c2cc(NC(=O)c3ccc(C)c(Nc4nccc(-c5cccnc5)n4)c3)cc(C(F)(F)F)c2)cn1 [nilotinib]
In short: as §1

[6] = compound: Cc1nc(Nc2n[nH]c3c2CN(C(=O)N[C@H](CN(C)C)c2ccccc2)C3(C)C)c2sccc2n1
In short: as §1

dasatinib = compound: Cc1nc(Nc2ncc(C(=O)Nc3c(C)cccc3Cl)s2)cc(N2CCN(CCO)CC2)n1 [dasatinib]
In short: as §1

[7] = compound: Cc1ncc(-c2ccnc(Nc3ccc(S(C)(=O)=O)cc3)n2)n1C(C)C
In short: as §1

[8] = compound: Cn1cc(-c2ccc3c(c2)CCN3C(=O)Cc2cccc(C(F)(F)F)c2)c2c(N)ncnc21
In short: as §1

[9] = compound: Cn1cc(-c2ccc3nnc(C(F)(F)c4ccc5ncccc5c4)n3n2)cn1
In short: as §1

tipifarnib = compound: Cn1cncc1[C@@](N)(c1ccc(Cl)cc1)c1ccc2c(c1)c(-c1cccc(Cl)c1)cc(=O)n2C [tipifarnib]
In short: as §1

mubritinib = compound: FC(F)(F)c1ccc(/C=C/c2nc(COc3ccc(CCCCn4ccnn4)cc3)co2)cc1 [mubritinib]
In short: as §1

duvelisib = compound: C[C@H](Nc1ncnc2nc[nH]c12)c1cc2cccc(Cl)c2c(=O)n1-c1ccccc1 [duvelisib]
In short: as §1

tozasertib = compound: Cc1cc(Nc2cc(N3CCN(C)CC3)nc(Sc3ccc(NC(=O)C4CC4)cc3)n2)n[nH]1 [tozasertib]
In short: as §1

Row | Target | log2 fold change [1] | log2 fold change (crizotinib) | log2 fold change [2] | log2 fold change [3] | log2 fold change (gandotinib) | log2 fold change [4] | log2 fold change (doramapimod) | log2 fold change (ispinesib) | log2 fold change (bafetinib) | log2 fold change [5] | log2 fold change (nilotinib) | log2 fold change [6] | log2 fold change (dasatinib) | log2 fold change [7] | log2 fold change [8] | log2 fold change [9] | log2 fold change (tipifarnib) | log2 fold change (mubritinib) | log2 fold change (duvelisib) | log2 fold change (tozasertib)
1 | H2AZ1 (UniProt P0C0S5) | inactive: -0.027 | inactive: -0.062 | inactive: -0.47 | inactive: 0.345 | inactive: -0.006 | inactive: -0.084 | inactive: 0.178 | inactive: -0.147 | inactive: 0.173 | inactive: -0.204 | inactive: -0.138 | inactive: -0.029 | inactive: -0.092 | inactive: -0.006 | inactive: -0.369 | inactive: -0.133 | inactive: 0.013 | inactive: -0.083 |  | 
2 | HDAC6 (UniProt Q9UBN7) | inactive: -0.019 | inactive: -0.057 | inactive: -0.007 | inactive: 0.066 | inactive: 0.079 | inactive: 0.062 | inactive: 0.015 | inactive: -0.027 | inactive: -0.18 | inactive: -0.086 | inactive: 0.126 | inactive: -0.026 | inactive: -0.107 | inactive: -0.084 | inactive: 0.055 | inactive: -0.005 | inactive: -0.009 | inactive: 0.086 |  | 
3 | GTF2A2 (UniProt P52657) | inactive: 0.022 | inactive: 0.11 | inactive: 0.102 | inactive: 0.015 | inactive: -0.005 | inactive: -0.076 | inactive: -0.034 | inactive: 0.023 | inactive: -0.032 | inactive: -0.036 | inactive: -0.025 | inactive: 0.022 | inactive: 0.047 | inactive: -0.021 | inactive: 0.056 | inactive: 0.104 | inactive: -0.028 | inactive: 0.008 |  | 
4 | GUSB (UniProt P08236) | inactive: 0.053 | inactive: 0.004 | inactive: -0.018 | inactive: 0.063 | inactive: 0.051 | inactive: -0.039 | inactive: 0.042 | inactive: -0.03 | inactive: 0.016 | inactive: -0.013 | inactive: 0.218 | inactive: -0.115 | inactive: 0.053 | inactive: 0.117 | inactive: -0.059 | inactive: -0.007 | inactive: 0.16 | inactive: -0.136 |  | 
5 | HECTD1 (UniProt Q9ULT8) | inactive: -0.034 | inactive: 0.084 | inactive: 0.129 | inactive: 0.072 | inactive: -0.062 | inactive: 0.06 | inactive: -0.062 | inactive: -0.126 | inactive: 0.025 | inactive: 0.029 | inactive: -0.111 | inactive: -0.141 | inactive: -0.104 | inactive: -0.022 | inactive: -0.058 | inactive: -0.032 | inactive: -0.088 | inactive: -0.144 |  | 
6 | GYG1 (UniProt P46976) | inactive: -0.223 | inactive: -0.037 | inactive: -0.15 | inactive: 0.018 | inactive: -0.12 | inactive: 0.09 | inactive: 0.072 | inactive: -0.12 | inactive: 0.237 | inactive: 0.035 | active: 0.635 | inactive: -0.012 | inactive: 0.052 | inactive: -0.297 | inactive: -0.06 | inactive: -0.11 | inactive: -0.009 | inactive: -0.104 |  | 
7 | HDAC7 isoform 5 (UniProt Q8WUI4) | inactive: -0.027 | inactive: -0.013 | inactive: 0.016 | active: -0.281 | inactive: 0.011 | inactive: 0.028 | inactive: -0.018 | inactive: 0.185 | inactive: -0.023 | inactive: 0.033 | inactive: 0.024 | active: -0.378 | inactive: -0.134 | inactive: -0.161 | inactive: 0.026 | inactive: -0.021 | inactive: 0.093 | inactive: -0.006 |  | 
8 | GTPBP4 (UniProt Q9BZE4) | inactive: -0.067 |  | inactive: -0.241 | inactive: 0.74 | inactive: 0.098 | inactive: -0.051 |  | inactive: -0.25 | inactive: -0.023 | inactive: -0.153 | inactive: 0.238 | inactive: 0.565 | inactive: 0.024 | inactive: -0.095 | inactive: -0.221 | inactive: -0.066 |  | inactive: -0.353 | inactive: -0.184 | inactive: -0.048
9 | HAUS5 (UniProt O94927) | inactive: -0.144 | inactive: -0.118 |  |  | inactive: -0.081 | inactive: 0.105 | inactive: 0.243 | inactive: -0.138 |  | inactive: 0.076 | inactive: -0.09 | inactive: -0.165 | inactive: -0.272 | inactive: 0.008 |  | inactive: -0.115 | inactive: 0.125 | inactive: -0.01 | inactive: -0.039 | inactive: 0.059
10 | HEATR1 (UniProt Q9H583) | inactive: 0.007 | inactive: -0.055 | inactive: 0.042 |  | inactive: -0.128 | inactive: -0.037 | inactive: 0.092 | inactive: -0.257 | inactive: 0.107 | inactive: 0.186 | inactive: 0.264 | inactive: -0.224 | inactive: -0.033 | inactive: 0.029 |  | inactive: -0.163 | inactive: 0.131 | inactive: -0.044 | inactive: -0.009 | inactive: -0.139
11 | GTF2H3 (UniProt Q13889) | inactive: 0.061 | inactive: 0.049 | inactive: -0.012 | inactive: -0.003 | inactive: -0.012 | inactive: -0.2 | inactive: 0.021 | inactive: 0.023 | inactive: -0.009 | inactive: 0.058 | inactive: 0.041 | inactive: 0 | inactive: 0.024 | inactive: -0.064 | inactive: -0.113 | inactive: -0.02 | inactive: -0.025 | inactive: 0.023 |  | 
12 | HGD (UniProt Q93099) | inactive: 0.074 |  | inactive: 0.015 |  |  |  |  |  |  |  |  |  |  |  |  |  |  |  |  | 
13 | H2AFX (UniProt P16104) | inactive: -0.09 | inactive: -0.096 | inactive: -0.39 | inactive: 0.479 | inactive: 0.087 | inactive: -0.078 | inactive: 0.348 | inactive: -0.222 | inactive: 0.103 | inactive: -0.198 | inactive: -0.041 | inactive: -0.025 | inactive: 0.283 | inactive: -0.012 | inactive: -0.439 | inactive: -0.146 | inactive: 0.074 | inactive: -0.111 |  | 
14 | HELZ (UniProt P42694) | inactive: -0.012 | inactive: 0.375 |  | inactive: 0.019 | inactive: -0.123 | inactive: 0.048 | inactive: -0.105 | inactive: -0.118 | inactive: 0.147 | inactive: -0.089 | inactive: 0.076 | inactive: 0.003 | inactive: 0.02 | inactive: -0.135 | inactive: -0.103 | inactive: -0.191 | inactive: -0.033 | inactive: -0.114 | inactive: -0.125 | 
15 | GSK3B isoform 2 (UniProt P49841) | inactive: 0.09 | inactive: -0.053 | inactive: -0.032 | inactive: -0.143 | inactive: -0.108 | inactive: 0.015 | inactive: -0.013 | inactive: 0.059 | inactive: -0.003 | inactive: 0.055 | inactive: -0.04 | inactive: 0.094 | inactive: -0.115 | inactive: 0.124 | inactive: 0.055 | inactive: -0.013 | inactive: -0.024 | inactive: -0.008 |  | 
16 | HDDC2 (UniProt Q7Z4H3) | inactive: 0.044 | inactive: -0.058 | inactive: 0.106 | inactive: -0.103 | inactive: 0.032 | inactive: 0.024 | inactive: 0.031 | inactive: 0.228 | inactive: -0.015 | inactive: 0.039 | inactive: 0.057 | inactive: -0.005 | inactive: -0.01 | inactive: -0.003 | inactive: 0.069 | inactive: -0.008 | inactive: -0.091 | inactive: 0.043 |  | 
17 | HAX1 (UniProt O00165) | inactive: 0.02 | inactive: -0.235 | inactive: -0.043 | inactive: 0.16 | inactive: -0.174 | inactive: 0.014 | inactive: 0.035 | active: -0.59 | inactive: -0.103 | inactive: 0.029 | inactive: -0.113 | inactive: -0.174 | inactive: -0.044 | inactive: 0.069 | inactive: -0.028 | inactive: -0.068 | inactive: -0.112 | inactive: 0.001 |  | 
18 | GSTCD (UniProt Q8NEC7) | inactive: 0.083 | inactive: -0.056 | inactive: 0.058 | inactive: 0.035 |  |  | inactive: 0.11 | inactive: -0.109 | inactive: 0.125 |  | inactive: 0.026 | inactive: -0.082 |  | inactive: -0.016 | inactive: 0.059 | inactive: 0 | inactive: -0.072 | inactive: 0.217 |  | inactive: -0.143
19 | GSR (UniProt P00390) | inactive: 0.009 | inactive: 0.046 | inactive: 0.029 | inactive: -0.085 | inactive: 0.002 | inactive: -0.02 | inactive: -0.047 | inactive: -0.003 | inactive: -0.031 | inactive: 0 | inactive: -0.025 | inactive: 0.02 | inactive: 0.02 | inactive: 0 | inactive: 0.002 | inactive: 0.022 | inactive: -0.058 | inactive: 0.024 |  | 

Single values from the entries so far:
Under log2 fold change [5], GTF2A2 (UniProt P52657) shows inactive: -0.036
Under log2 fold change [3], GSR (UniProt P00390) shows inactive: -0.085
